These results are taken from PubChem BioAssay AID2685 (National Center for Advancing Translational Sciences (NCATS), 2010).

This experiment is described as follows: qHTS Assay for Lipid Storage Modulators in Drosophila S3 Cells.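 On cell number change: cells counted by Cell Tracker Red CMTPX staining in the red channel.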 As to conditions: BODIPY lipid droplet fluorescence, 18-24 h; for cell number change: measured here: cell count max response, cells fed with added oleic acid. Summed up:
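Drosophila S3 cells got compounds at several concentrations plus oleic acid (400 uM solution). Laser-scanning cytometry with 488 nm excitation read lipid droplets at 500-530 nm and cells at 575-640 nm. Percent activity was relative to 20 uM Triacsin C.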

[1] abbreviates: measured here: lipid fluorescence (Fed channel) AC50, cells fed with added oleic acid.
The mark [2] stands for this setting: measured here: cell number channel AC50, cells fed with added oleic acid.

The list shows a part of the results. Further columns of the screen follow, without active or inactive calls. The list favours compounds with an active or inconclusive main result. The note in brackets gives the kind of curve behind each potency; many fits are weak.

As to `COC(=O)c1cc(C#N)c(OC)nc1C`, the cell number change worked out at 8.96%.
As for `CCOc1ccc(S(=O)(=O)Nc2ccccc2C(=O)N2CCOCC2)cc1`, the cell number change was -9.21%. Moreover, the AC50 under setting [1] is 35.5 µM [rising, single point].
As for `O=C(Nc1ccc2nc(SCc3ccc(Cl)cc3)sc2c1)c1ccccc1C(=O)N1CCOCC1`, the cell number change amounted to 9.51%. The AC50 under setting [1] was 20.6 µM [rising, partial curve].
For the compound `COc1cc([N+](=O)[O-])cc([N+](=O)[O-])c1NC(=O)N1CCOCC1`, the cell number change was -0.833%. The AC50 under setting [1] is 8.2 µM [falling, single point].
Consider `COc1ccc(C2C(C(N)=O)=C(C)Nc3nc(-c4ccccc4OC)nn32)cc1OC` (stereo unspecified), for which the cell number change was found to be 18.4%. Also, the AC50 under setting [1] was 16.4 µM [rising, single point].
Consider `CC1CC(C)CN(C(=O)C2CCN(S(=O)(=O)c3ccc4c(c3)CC(C)N4C(=O)C3CC3)CC2)C1` (stereo unspecified), for which the cell number change was -8.57%. Moreover, the AC50 under setting [1] was 16.4 µM [falling, partial curve].
Turning to `COc1ccc(O)c(C(=O)c2cc(C#N)c(=O)n(CC3CCCO3)c2)c1` (stereo unspecified), the cell number change is 20.2%. Also, under setting [1], the AC50 was 0.0651 µM [rising, full curve, poor fit].
As for `CC(=O)c1ccc(OCC(O)CN2CCN(S(=O)(=O)c3cccc(Br)c3)CC2)cc1` (stereo unspecified), the cell number change was -9.52%. Under setting [1], the AC50 is 29.1 µM [falling, single point].
For the compound `CC(=O)CCC(=O)NCCc1ccccc1F`, the cell number change is -15.2%. In addition, under setting [1], the AC50 is 1.3 µM [falling, full curve, poor fit].
As to `CCCn1c2c(c(O)c(C(=O)Nc3nc(C)cs3)c1=O)CCCC2`, the cell number change was -0.0678%.
On to `C#CCOCCOCCOCCNc1nc(N2CCN(C(=O)CCCCCCCCCCNC(=O)[C@H]([C@@H](C)CC)n3cc(CCCCCN)nn3)CC2)nc(N2CCN(C(=O)CCCCCCCCCCNC(=O)[C@H]([C@@H](C)CC)n3cc(CCCCN=C(N)N)nn3)CC2)n1`, for which the cell number change is -86.8%. Under setting [2], the AC50 is 13 µM [falling, partial curve]. The AC50 under setting [1] is 29.1 µM [falling, single point].
For the compound `COc1cc(NC(=O)c2cccc(C)c2)c(Cl)cc1[N+](=O)[O-]`, the cell number change was -69.9%. Further, the AC50 under setting [2] was 29.1 µM [falling, single point]. The AC50 under setting [1] is 23.1 µM [falling, partial curve].
Turning to `CCOC(=O)/C(C(C)=O)=C1/OC(=O)c2ccccc21`, the cell number change was -47.4%. The AC50 under setting [2] was 0.231 µM [falling, full curve]. In addition, under setting [1], the AC50 is 20.6 µM [falling, partial curve].
Turning to `Cc1nnc(SCC(=O)NCc2ccco2)n1-c1ccccc1`, the cell number change is -63.4%. Besides, under setting [2], the AC50 is 16.4 µM [falling, partial curve].
For the compound `CCOC(=O)C1(CC)NC(c2ccco2)C2C(=O)N(c3ccc(C)cc3)C(=O)C21` (stereo unspecified), the cell number change is -1.69%.
As to `CC(=O)NC(=S)Nc1ccc(-c2nc3ccc(C)cc3s2)cc1`, the cell number change was -27.6%. Under setting [1], the concentration at half-maximal activity (AC50) is 20.6 µM [falling, single point].
As for `Cc1csc(NC(=O)c2c(-c3ccccc3)noc2C)n1`, the cell number change is -22.4%. The AC50 under setting [1] is 3.55 µM [rising, partial curve, poor fit].
Regarding `CC(C)N1C(=O)NC2(c3ccccc3)N(C)C(=O)N(C)C12c1ccccc1` (stereo unspecified), the cell number change was -2.41%. For the same compound, under setting [1], the AC50 is 1.3 µM [falling, full curve, poor fit].
Turning to `COc1ccc(/C=C/C(=O)Nc2ccc(C(N)=O)cc2)cc1OC`, the cell number change came out at 55.7%. In addition, under setting [2], the AC50 was 29.1 µM [rising, single point].
Take `CCC(CC)C(=O)NCc1ccc(OC)cc1`: the cell number change was -48.7%. Moreover, the AC50 under setting [2] was 29.1 µM [falling, single point].
With `CCN(CC)S(=O)(=O)c1ccc(C(=O)NCC2(N3CCOCC3)CCCCC2)cc1`, the cell number change is -9.08%. Also, the AC50 under setting [1] was 1.3 µM [falling, full curve, poor fit].
For the compound `O=C(N/N=C/c1ccc(OC2CSC2)cc1)c1ccccc1`, the cell number change was -17%. For the same compound, under setting [1], the AC50 was 0.461 µM [rising, single point].
As for `CCS(=O)(=O)N1CCC(NC(=O)c2cc(OC)cc(OC)c2)CC1`, the cell number change was 20.7%. Moreover, the AC50 under setting [1] is 29.1 µM [falling, single point].
For `CC1(C)Cc2ccccc2C(CSc2ccccc2C(=O)O)=N1`, the cell number change was -30.7%. In addition, the AC50 under setting [2] is 32.6 µM [falling, single point]. Moreover, the AC50 under setting [1] was 32.6 µM [falling, single point].
On to `CCC(C(=O)NCc1ccncc1)c1ccccc1` (stereo unspecified), for which the cell number change worked out at 5.4%. Moreover, under setting [1], the AC50 was 0.366 µM [falling, full curve, poor fit].
In the case of `Cc1cccc(C(=O)C2CCN(S(=O)(=O)c3ccc(C(=O)O)cc3)CC2)c1`, the cell number change came to 6.41%.
With `CCOC(=O)C(CC)(CCC(=O)O)c1csc(Nc2ccc(C)cc2)n1` (stereo unspecified), the cell number change is 12.4%. Also, the AC50 under setting [1] is 13 µM [rising, partial curve, poor fit].
In the case of `CCOc1ccccc1N1CCN(C(=O)C2c3ccccc3Oc3ccccc32)CC1`, the cell number change is 10.5%.
`COc1ccc(NCc2nn(CC(=O)c3ccc(Br)cc3)c3[n+]2CCCCC3)cc1`: the cell number change is 1.45%. Also, the AC50 under setting [2] is 1.16 µM [rising, full curve, poor fit].
Take `CCOc1ccccc1NC(=O)CSc1nnc(CNC(=O)c2ccco2)o1`: the cell number change is 36.9%. The AC50 under setting [2] was 20.6 µM [rising, partial curve, poor fit].
For `CC(C)OCCCn1c(=O)c2ccccc2n2c(CCC(=O)N3CCN(c4ccccn4)CC3)nnc12`, the AC50 under setting [1] was 2.91 µM [falling, partial curve].
Take `COc1ccc(N(C(=O)c2ccco2)C(C(=O)NC2CCCC2)c2ccccc2)cc1` (stereo unspecified): the cell number change came out at 5.26%. Further, the AC50 under setting [1] is 12.6 µM [falling, single point].
Take `COc1ccc(OC)c(NC(=O)CC2C(=O)NCCN2C(=O)c2ccccc2)c1` (stereo unspecified): the cell number change amounted to 37.8%. The AC50 under setting [2] is 0.00461 µM [rising, full curve, poor fit]. Moreover, the AC50 under setting [1] was 0.206 µM [falling, single point].
As for `COc1ccc(N=Nc2cc(C)ccc2O)cc1`, the cell number change was -49.2%. Moreover, the AC50 under setting [2] was 14.6 µM [falling, partial curve, poor fit]. Also, the AC50 under setting [1] was 14.6 µM [falling, partial curve, poor fit].
Turning to `COc1ccccc1NCCC(=O)OCC(=O)NC1CCCC(C)C1C` (stereo unspecified), the cell number change is -11.2%. Further, under setting [1], the AC50 was 13 µM [falling, partial curve, poor fit].
On to `CN(CC(=O)NCC(=O)Nc1ccc(F)cc1)C1CCS(=O)(=O)C1` (stereo unspecified), for which the cell number change was found to be 11.4%. Moreover, the AC50 under setting [1] is 23.1 µM [rising, single point].
As to `Cc1ccc(NC(=O)CCC(=O)OCc2ccc(Br)cc2)cc1`, the cell number change is -52.6%. In addition, the AC50 under setting [2] was 29.1 µM [falling, single point]. Moreover, the AC50 under setting [1] is 29.1 µM [falling, partial curve, poor fit].
For the compound `Nc1c(C(=O)N2CCOCC2)sc(=S)n1-c1ccccc1`, the cell number change is -31%. Further, the AC50 under setting [2] is 5.17 µM [falling, single point]. Under setting [1], the AC50 is 29.1 µM [falling, single point].
Regarding `COc1ccc(-c2c(C(=O)O)c(C(=O)O)c3n2CCC3)cc1`, the cell number change was -20.9%. Further, the AC50 under setting [1] is 29.1 µM [falling, single point].
In the case of `Cc1ccc(CNC(=O)C2CCN(S(=O)(=O)c3cccnc3)CC2)cc1`, the cell number change worked out at 12.2%. Also, the AC50 under setting [1] is 29.1 µM [rising, single point].
On to `Clc1ccccc1Nc1nc2ccccc2o1`, for which the cell number change is -0.916%.
On to `CCCCNc1ccc(S(=O)(=O)c2cccc([N+](=O)[O-])c2)cc1[N+](=O)[O-]`, for which the cell number change is -2.22%. Further, under setting [1], the AC50 is 14.6 µM [rising, partial curve, poor fit].
Consider `COc1cc(C2Nc3ccc4ncccc4c3C3=C2C(=O)CCC3)cc(OC)c1O` (stereo unspecified), for which the cell number change was -23.5%. Further, under setting [1], the AC50 was 9.2 µM [rising, partial curve, poor fit].
On to `O=C(Cc1ccc(Cl)cc1)Nc1ccc(S(=O)(=O)N2CCOCC2)cc1`, for which the cell number change is -20.8%. Also, the AC50 under setting [2] is 0.0651 µM [falling, full curve, poor fit]. Further, under setting [1], the AC50 is 29.1 µM [rising, single point].
Consider `COc1cccc(S(=O)(=O)NCc2ccc(C(=O)NCc3ccccn3)cc2)c1`, for which the cell number change is -13.3%. Moreover, the AC50 under setting [1] is 29.1 µM [falling, single point].
On to `CCOC(=O)COc1ccc(CCNC(C)=O)cc1`, for which the cell number change was -9.92%. In addition, the AC50 under setting [1] was 0.92 µM [falling, full curve].
Take `COCCNC(=O)CN(c1ccc(OC)c(OC)c1)S(=O)(=O)c1ccc(C)cc1`: the cell number change was -2.87%. The AC50 under setting [1] was 6.51 µM [falling, single point].
In the case of `c1ccc(-c2nn[nH]n2)nc1`, the cell number change was found to be 23.9%. Further, the AC50 under setting [1] was 1.16 µM [falling, full curve, poor fit].
`O=C(CSc1ccc(-c2ccco2)nn1)Nc1ccc(F)cc1`: the AC50 under setting [1] is 20.6 µM [rising, single point].
As for `CN(C)CCN(CC1CCCN(Cc2ccccc2F)C1)C(=O)c1ccc(F)cc1` (stereo unspecified), the cell number change was 9.34%. Under setting [1], the AC50 was 23.1 µM [rising, single point].
With `O=C(CCN=C1NS(=O)(=O)c2ccccc21)Nc1ccc(Cl)cc1F`, the cell number change was found to be 9.49%. The half-maximal activity concentration (AC50) under setting [1] is 0.517 µM [falling, single point].
With `CC(=O)N1CCC2(CC1)C(C#N)=C(N)Oc1n[nH]c(CSc3ccc(C)cc3)c12`, the cell number change is -9.93%. Further, the AC50 under setting [1] was 0.82 µM [falling, single point].
Consider `COCCN1CCN(C(=O)c2ccc3nc(Cc4ccc(OC)c(OC)c4)oc3c2)CC1`, for which the cell number change is -36.7%. The AC50 under setting [2] was 7.31 µM [falling, partial curve, poor fit]. Further, the AC50 under setting [1] is 5.8 µM [falling, full curve].
`CCOC(=O)CCSc1nc(-c2ccccc2)cc(C(F)(F)F)n1`: the cell number change was -0.345%. Moreover, the AC50 under setting [2] was 2.59 µM [rising, partial curve, poor fit]. In addition, the AC50 under setting [1] was 4.11 µM [rising, partial curve].
For the compound `COC(=O)CSc1nnc(CNc2ccc(OC)cc2)n1C`, the cell number change was 4.49%. In addition, under setting [2], the AC50 is 0.00517 µM [rising, full curve, poor fit]. The AC50 under setting [1] is 29.1 µM [rising, single point].
For `CCC(C)Sc1ccc([C@@H]2[C@H]3C(=O)N(CC)C(=O)[C@H]3[C@]3(C(=O)OC)CCCN23)cc1OC` (stereo partly specified), the cell number change is -29.6%. For the same compound, under setting [1], the AC50 is 1.3 µM [falling, full curve].

The term AC50 denotes the concentration giving half of the maximal activity seen.
